Some of the results follow. Most entries show no effect beyond the scatter of the controls.
Compound: CN[C@@H]1C[C@H]2O[C@@](C)([C@@H]1OC)n1c3ccccc3c3c4c(c5c6ccccc6n2c5c31)C(=O)NC4 [staurosporine]
Assay: log2 fold change of tryptic peptide abundance, ligand vs vehicle (limited proteolysis) (log2 ratio); higher = more trypsin-susceptible (destabilized)
Details: ligand concentration: 20 uM; sample: mouse liver crude lysate; replicate design: treated separately

Sequences of proteins named here, by UniProt entry; tags and fusion partners are left off. A change or cut given only in a name is not applied to a line headed by its entry.
UniProt Q8R0Y6: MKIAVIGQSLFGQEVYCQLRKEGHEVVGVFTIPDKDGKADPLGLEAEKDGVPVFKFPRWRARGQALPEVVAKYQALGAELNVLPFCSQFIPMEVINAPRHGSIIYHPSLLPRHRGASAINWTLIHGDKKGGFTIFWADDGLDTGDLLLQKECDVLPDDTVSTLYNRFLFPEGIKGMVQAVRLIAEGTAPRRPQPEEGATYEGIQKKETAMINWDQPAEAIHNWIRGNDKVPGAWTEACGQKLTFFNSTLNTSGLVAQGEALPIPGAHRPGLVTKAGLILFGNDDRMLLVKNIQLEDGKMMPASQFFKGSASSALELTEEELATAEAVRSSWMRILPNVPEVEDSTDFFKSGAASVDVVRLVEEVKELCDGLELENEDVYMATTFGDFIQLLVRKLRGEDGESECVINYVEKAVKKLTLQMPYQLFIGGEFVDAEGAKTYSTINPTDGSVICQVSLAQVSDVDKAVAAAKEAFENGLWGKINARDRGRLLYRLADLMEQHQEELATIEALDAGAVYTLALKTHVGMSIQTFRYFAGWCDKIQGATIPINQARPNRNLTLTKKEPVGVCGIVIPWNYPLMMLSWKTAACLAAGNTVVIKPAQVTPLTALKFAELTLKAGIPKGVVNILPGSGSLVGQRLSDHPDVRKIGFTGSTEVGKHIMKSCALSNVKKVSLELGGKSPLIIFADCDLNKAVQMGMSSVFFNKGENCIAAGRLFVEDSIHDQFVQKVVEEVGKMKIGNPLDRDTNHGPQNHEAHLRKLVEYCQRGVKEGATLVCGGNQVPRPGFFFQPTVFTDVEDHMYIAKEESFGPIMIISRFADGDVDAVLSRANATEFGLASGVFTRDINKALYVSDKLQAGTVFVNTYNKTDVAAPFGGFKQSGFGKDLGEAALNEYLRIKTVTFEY
UniProt Q8K4G2: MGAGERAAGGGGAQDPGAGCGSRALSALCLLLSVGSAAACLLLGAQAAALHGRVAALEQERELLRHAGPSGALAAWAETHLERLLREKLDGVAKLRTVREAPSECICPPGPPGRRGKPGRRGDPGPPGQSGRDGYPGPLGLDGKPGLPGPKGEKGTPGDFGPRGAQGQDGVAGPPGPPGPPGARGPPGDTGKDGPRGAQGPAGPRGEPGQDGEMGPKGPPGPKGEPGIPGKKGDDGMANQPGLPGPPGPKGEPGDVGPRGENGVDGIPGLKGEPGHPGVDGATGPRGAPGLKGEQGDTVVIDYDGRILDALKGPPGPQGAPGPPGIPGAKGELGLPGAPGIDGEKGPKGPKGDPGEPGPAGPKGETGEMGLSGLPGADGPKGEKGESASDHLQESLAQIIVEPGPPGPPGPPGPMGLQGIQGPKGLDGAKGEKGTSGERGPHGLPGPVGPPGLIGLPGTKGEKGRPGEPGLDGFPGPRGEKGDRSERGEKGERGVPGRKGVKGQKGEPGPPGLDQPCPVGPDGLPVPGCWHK
UniProt Q8K2F8: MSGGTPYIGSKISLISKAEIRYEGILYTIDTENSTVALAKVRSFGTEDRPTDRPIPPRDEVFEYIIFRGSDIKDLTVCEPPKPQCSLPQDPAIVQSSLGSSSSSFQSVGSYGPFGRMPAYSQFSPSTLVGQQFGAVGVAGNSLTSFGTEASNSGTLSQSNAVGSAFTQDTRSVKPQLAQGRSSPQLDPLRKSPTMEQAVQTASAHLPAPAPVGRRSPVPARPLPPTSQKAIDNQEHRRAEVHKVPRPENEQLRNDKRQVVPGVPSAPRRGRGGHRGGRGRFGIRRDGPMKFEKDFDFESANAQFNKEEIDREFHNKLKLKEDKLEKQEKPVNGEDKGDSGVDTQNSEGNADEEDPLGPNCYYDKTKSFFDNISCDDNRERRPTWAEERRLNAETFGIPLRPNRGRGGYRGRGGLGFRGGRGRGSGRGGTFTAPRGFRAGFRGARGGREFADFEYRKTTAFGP
UniProt Q8R1F0: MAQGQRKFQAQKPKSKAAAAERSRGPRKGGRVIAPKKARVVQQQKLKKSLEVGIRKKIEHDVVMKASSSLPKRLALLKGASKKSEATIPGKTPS
UniProt Q8R087: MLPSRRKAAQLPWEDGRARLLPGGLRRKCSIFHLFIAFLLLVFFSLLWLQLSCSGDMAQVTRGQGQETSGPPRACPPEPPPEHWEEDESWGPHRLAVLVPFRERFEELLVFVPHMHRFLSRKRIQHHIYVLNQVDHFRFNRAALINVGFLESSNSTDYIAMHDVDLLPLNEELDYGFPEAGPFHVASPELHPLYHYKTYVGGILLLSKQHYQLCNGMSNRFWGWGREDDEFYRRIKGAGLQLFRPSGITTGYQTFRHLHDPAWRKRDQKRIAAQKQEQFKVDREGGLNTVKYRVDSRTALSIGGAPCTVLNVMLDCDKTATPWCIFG
UniProt Q8R2R9: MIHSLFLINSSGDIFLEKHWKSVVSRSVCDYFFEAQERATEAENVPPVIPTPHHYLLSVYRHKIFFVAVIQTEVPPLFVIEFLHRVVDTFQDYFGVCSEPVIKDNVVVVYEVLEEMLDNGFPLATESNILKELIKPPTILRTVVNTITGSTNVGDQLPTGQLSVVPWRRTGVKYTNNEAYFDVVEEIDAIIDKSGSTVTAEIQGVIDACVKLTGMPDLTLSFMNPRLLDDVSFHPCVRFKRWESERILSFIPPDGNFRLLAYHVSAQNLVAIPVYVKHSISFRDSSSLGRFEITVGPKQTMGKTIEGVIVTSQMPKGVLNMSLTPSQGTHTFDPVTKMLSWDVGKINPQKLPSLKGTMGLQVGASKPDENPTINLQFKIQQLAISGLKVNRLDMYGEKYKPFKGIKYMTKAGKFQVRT
UniProt Q8K382: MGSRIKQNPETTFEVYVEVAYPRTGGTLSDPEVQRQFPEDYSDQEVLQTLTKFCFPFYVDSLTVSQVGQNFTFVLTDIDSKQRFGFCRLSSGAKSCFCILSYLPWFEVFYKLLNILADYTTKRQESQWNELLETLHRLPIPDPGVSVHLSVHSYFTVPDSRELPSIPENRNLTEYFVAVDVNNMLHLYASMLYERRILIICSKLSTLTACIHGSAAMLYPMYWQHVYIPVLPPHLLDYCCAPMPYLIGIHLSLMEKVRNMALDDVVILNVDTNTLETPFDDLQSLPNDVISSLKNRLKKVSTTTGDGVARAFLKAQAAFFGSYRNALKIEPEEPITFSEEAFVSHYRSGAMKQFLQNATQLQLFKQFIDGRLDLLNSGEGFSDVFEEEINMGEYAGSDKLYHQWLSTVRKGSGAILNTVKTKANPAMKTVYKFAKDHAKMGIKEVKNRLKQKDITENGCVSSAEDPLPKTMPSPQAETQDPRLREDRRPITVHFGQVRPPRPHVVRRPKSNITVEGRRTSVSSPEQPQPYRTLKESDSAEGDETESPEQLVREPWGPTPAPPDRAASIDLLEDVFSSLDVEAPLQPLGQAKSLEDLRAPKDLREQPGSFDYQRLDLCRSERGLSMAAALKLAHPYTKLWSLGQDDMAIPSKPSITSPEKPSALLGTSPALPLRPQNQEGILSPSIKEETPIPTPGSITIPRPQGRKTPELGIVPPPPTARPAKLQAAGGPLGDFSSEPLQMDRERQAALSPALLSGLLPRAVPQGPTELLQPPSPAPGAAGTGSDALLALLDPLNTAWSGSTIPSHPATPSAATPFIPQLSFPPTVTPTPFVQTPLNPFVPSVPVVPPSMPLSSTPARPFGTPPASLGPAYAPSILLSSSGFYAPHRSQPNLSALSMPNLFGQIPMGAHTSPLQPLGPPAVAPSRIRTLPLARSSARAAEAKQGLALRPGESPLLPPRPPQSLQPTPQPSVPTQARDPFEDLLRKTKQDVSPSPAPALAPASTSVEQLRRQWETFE
UniProt Q8K4L3, whole entry: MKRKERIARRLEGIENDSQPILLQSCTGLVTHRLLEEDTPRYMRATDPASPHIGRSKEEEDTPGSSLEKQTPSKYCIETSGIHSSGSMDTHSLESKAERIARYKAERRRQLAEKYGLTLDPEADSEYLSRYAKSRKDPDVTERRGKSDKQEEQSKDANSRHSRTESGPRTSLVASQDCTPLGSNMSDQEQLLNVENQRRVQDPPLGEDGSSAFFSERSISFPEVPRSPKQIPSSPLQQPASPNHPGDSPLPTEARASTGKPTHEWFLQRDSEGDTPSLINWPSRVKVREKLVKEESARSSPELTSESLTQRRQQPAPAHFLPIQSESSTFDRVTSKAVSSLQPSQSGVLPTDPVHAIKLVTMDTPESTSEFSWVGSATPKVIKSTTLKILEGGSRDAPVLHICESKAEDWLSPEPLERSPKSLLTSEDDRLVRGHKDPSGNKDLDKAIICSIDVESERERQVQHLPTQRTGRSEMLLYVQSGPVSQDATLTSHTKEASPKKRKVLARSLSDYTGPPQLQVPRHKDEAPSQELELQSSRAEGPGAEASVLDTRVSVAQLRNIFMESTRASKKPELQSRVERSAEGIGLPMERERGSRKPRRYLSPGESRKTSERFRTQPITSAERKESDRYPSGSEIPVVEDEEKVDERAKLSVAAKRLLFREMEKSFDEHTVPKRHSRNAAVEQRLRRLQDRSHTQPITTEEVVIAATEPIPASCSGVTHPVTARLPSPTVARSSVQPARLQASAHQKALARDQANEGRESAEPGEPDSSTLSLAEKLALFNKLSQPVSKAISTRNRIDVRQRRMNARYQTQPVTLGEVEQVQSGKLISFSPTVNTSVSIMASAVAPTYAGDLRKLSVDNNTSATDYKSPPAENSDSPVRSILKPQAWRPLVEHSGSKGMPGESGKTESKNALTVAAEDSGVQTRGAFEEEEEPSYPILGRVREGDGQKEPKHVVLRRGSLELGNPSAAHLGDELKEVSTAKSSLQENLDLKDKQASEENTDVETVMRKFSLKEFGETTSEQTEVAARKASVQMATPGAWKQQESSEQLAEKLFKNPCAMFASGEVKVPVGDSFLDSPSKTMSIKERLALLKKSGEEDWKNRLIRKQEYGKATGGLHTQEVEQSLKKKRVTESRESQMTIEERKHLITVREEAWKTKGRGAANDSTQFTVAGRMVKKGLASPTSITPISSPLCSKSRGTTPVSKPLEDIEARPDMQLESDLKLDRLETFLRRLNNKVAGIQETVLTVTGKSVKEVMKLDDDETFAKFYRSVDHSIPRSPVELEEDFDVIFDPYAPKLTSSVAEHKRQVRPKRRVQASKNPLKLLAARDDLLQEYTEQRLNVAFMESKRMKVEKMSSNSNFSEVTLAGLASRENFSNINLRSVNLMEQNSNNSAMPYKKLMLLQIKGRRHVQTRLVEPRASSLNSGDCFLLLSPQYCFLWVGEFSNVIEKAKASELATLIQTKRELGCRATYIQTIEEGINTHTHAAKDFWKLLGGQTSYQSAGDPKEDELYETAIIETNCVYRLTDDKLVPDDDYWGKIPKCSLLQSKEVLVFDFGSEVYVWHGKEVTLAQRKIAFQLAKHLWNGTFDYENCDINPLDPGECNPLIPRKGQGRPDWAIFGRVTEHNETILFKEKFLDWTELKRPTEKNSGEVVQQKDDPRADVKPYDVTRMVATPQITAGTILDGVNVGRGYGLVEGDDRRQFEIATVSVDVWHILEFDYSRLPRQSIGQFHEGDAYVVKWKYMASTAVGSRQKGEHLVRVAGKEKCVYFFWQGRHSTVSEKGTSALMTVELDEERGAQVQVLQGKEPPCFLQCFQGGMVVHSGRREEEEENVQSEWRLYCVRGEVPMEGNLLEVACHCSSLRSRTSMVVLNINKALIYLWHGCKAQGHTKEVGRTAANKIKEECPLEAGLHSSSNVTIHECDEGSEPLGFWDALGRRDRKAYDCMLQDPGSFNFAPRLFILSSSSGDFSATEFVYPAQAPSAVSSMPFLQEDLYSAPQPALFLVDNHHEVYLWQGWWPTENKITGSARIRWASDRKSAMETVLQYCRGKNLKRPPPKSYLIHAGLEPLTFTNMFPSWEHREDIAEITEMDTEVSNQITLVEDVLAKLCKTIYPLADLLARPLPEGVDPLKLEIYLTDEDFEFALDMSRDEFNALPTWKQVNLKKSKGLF
UniProt Q8K301: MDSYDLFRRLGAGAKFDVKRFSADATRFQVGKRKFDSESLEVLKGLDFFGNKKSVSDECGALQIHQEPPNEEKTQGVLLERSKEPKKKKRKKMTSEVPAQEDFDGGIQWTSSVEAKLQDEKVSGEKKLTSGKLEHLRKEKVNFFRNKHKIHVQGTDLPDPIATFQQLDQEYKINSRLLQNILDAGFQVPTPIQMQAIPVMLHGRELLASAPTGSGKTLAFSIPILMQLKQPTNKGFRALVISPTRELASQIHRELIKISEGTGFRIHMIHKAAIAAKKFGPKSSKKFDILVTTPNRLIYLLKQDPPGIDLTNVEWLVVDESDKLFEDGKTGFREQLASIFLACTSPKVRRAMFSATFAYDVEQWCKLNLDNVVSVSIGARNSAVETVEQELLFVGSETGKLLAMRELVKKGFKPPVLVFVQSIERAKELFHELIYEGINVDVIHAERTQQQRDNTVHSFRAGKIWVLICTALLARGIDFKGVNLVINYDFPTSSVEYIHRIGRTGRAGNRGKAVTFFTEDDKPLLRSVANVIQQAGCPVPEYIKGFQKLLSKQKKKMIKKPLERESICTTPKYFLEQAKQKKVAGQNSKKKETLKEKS

**Q.** How did the log2 fold change turn out when “UniProt Q8R2Q4 (peptide sequence: IYSGTLTPQLAVHNINR, peptide start residue: 388)” was run?
**A.** Its log2 fold change is 0.197.

**Q.** For “UniProt Q8R016 (peptide sequence: KTLYNNQPIDFLKK, peptide start residue: 297)”, which log2 fold change is on record?
**A.** The log2 fold change was 0.305.

**Q.** For “UniProt Q8K409 (peptide sequence: NEDKLNHHQR, peptide start residue: 128)”, which log2 fold change is on record?
**A.** Its log2 fold change is -0.824.

**Q.** “UniProt Q8R2H9 (peptide sequence: QHLQQVLK, peptide start residue: 258)” was tested. Which log2 fold change did it give?
**A.** The log2 fold change was -0.444.

**Q.** For “UniProt Q8R0Y6 (peptide sequence: HRGASAINWTLIHGDKK, peptide start residue: 113)”, which log2 fold change is on record?
**A.** The log2 fold change was -1.06.

**Q.** “UniProt Q8K4R4 (peptide sequence: ATLNLPGVYTSEKPCRPK, peptide start residue: 313)” was tested. Which log2 fold change did it give?
**A.** Its log2 fold change is -0.0934.

**Q.** “UniProt Q8R1V4 (peptide sequence: DKLTELQLR, peptide start residue: 151)” was tested. Which log2 fold change did it give?
**A.** The log2 fold change was -0.114.

**Q.** “UniProt Q8R149 (peptide sequence: QTHNHSPTAAQHR, peptide start residue: 267)” was tested. Which log2 fold change did it give?
**A.** The log2 fold change was -0.82.

**Q.** With “UniProt Q8K1J5 (peptide sequence: TVTDPEETPARK, peptide start residue: 317)” as the target, how does the log2 fold change read?
**A.** Its log2 fold change is 0.273.

**Q.** For “UniProt Q8K4P0 (peptide sequence: SSSLDGDHHDGYHR, peptide start residue: 1271)”, which log2 fold change is on record?
**A.** The log2 fold change was 0.358.

**Q.** For “UniProt Q8K4G2 (peptide sequence: PGLPGPK, peptide start residue: 145)”, which log2 fold change is on record?
**A.** Its log2 fold change is 0.351.

**Q.** With “UniProt Q8K3G5 (peptide sequence: LFNEQNFFQR, peptide start residue: 190)” as the target, how does the log2 fold change read?
**A.** Its log2 fold change is 0.419.

**Q.** With “UniProt Q8K3F6 (peptide sequence: FRTAFRMK, peptide start residue: 473)” as the target, how does the log2 fold change read?
**A.** Its log2 fold change is 0.00999.

**Q.** “UniProt Q8K2F8 (peptide sequence: EEIDREFHNK, peptide start residue: 307)” was tested. Which log2 fold change did it give?
**A.** Its log2 fold change is -0.471.

**Q.** With “UniProt Q8R1A4 (peptide sequence: MNSLTFKK, peptide start residue: 1380)” as the target, how does the log2 fold change read?
**A.** The log2 fold change was -0.551.

**Q.** Which log2 fold change does the source give for “UniProt Q8K2I1 (peptide sequence: IQEVFSSYK, peptide start residue: 55)” here?
**A.** The log2 fold change was 0.242.

**Q.** With “UniProt Q8QZT1 (peptide sequence: AGIPKEEVK, peptide start residue: 76)” as the target, how does the log2 fold change read?
**A.** Its log2 fold change is -0.163.

**Q.** “UniProt Q8K2B3 (peptide sequence: GEGGILINSQGER, peptide start residue: 313)” was tested. Which log2 fold change did it give?
**A.** Its log2 fold change is -0.19.

**Q.** Which log2 fold change does the source give for “UniProt Q8R0A7 (peptide sequence: LCSDFLK, peptide start residue: 375)” here?
**A.** The log2 fold change was 0.313.

**Q.** Which log2 fold change does the source give for “UniProt Q8R1F0 (peptide sequence: SLEVGIRK, peptide start residue: 49)” here?
**A.** Its log2 fold change is 0.126.

**Q.** With “UniProt Q8R087 (peptide sequence: KAAQLPWEDGR, peptide start residue: 7)” as the target, how does the log2 fold change read?
**A.** Its log2 fold change is 0.431.

**Q.** For “UniProt Q8R1K1 (peptide sequence: LMEMGFSR, peptide start residue: 314)”, which log2 fold change is on record?
**A.** The log2 fold change was 0.127.

**Q.** With “UniProt Q8K2F3 (peptide sequence: LLLPVPHLPTIR, peptide start residue: 5)” as the target, how does the log2 fold change read?
**A.** The log2 fold change was 0.319.

**Q.** With “UniProt Q8K2C9 (peptide sequence: RPLFLAPDFDR, peptide start residue: 99)” as the target, how does the log2 fold change read?
**A.** The log2 fold change was -0.129.

**Q.** “UniProt Q8R1T1 (peptide sequence: MGFWAPLVLSHSR, peptide start residue: 53)” was tested. Which log2 fold change did it give?
**A.** The log2 fold change was -0.0927.

**Q.** “UniProt Q8R2R9 (peptide sequence: ELIKPPTILR, peptide start residue: 132)” was tested. Which log2 fold change did it give?
**A.** The log2 fold change was 0.334.

**Q.** For “UniProt Q8K382 (peptide sequence: KTPELGIVPPPPTARPAK, peptide start residue: 706)”, which log2 fold change is on record?
**A.** The log2 fold change was -0.0988.

**Q.** “UniProt Q8R0F3 (peptide sequence: AGAHGSSAAAQR, peptide start residue: 56)” was tested. Which log2 fold change did it give?
**A.** Its log2 fold change is 0.609.

**Q.** With “UniProt Q8K4L3 (peptide sequence: ATGGLHTQEVEQSLK, peptide start residue: 1112)” as the target, how does the log2 fold change read?
**A.** Its log2 fold change is -0.159.

**Q.** With “UniProt Q8K296 (peptide sequence: FSGKDMLPVAPEPR, peptide start residue: 872)” as the target, how does the log2 fold change read?
**A.** Its log2 fold change is -0.414.

**Q.** With “UniProt Q8K4Q0 (peptide sequence: YYDGFMGQR, peptide start residue: 1292)” as the target, how does the log2 fold change read?
**A.** Its log2 fold change is 0.169.

**Q.** With “UniProt Q8R184 (peptide sequence: TKVPGYLLPRPADGGAR, peptide start residue: 22)” as the target, how does the log2 fold change read?
**A.** The log2 fold change was -0.285.

**Q.** With “UniProt Q8R2N0 (peptide sequence: VKEAPASQESQFTDRYPEHLK, peptide start residue: 74)” as the target, how does the log2 fold change read?
**A.** Its log2 fold change is -0.353.

**Q.** How did the log2 fold change turn out when “UniProt Q8QZS1 (peptide sequence: QLMEGSSK, peptide start residue: 312)” was run?
**A.** Its log2 fold change is -0.165.

**Q.** With “UniProt Q8R1N4 (peptide sequence: TFDHMAR, peptide start residue: 68)” as the target, how does the log2 fold change read?
**A.** The log2 fold change was -0.234.

**Q.** How did the log2 fold change turn out when “UniProt Q8K301 (peptide sequence: YFLEQAK, peptide start residue: 573)” was run?
**A.** Its log2 fold change is -0.129.

**Q.** For “UniProt Q8R0W1 (peptide sequence: RFQNTLVVLHK, peptide start residue: 349)”, which log2 fold change is on record?
**A.** Its log2 fold change is -0.417.
